Test results taken from PubChem BioAssay AID488840 (Broad Institute, 2010).
Screen size: about 1,400 compounds; about 45 (3%) were called active.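 The calls were made as follows: active = half-maximal dose of signal decrease from fit no higher than ten times the top valid tested dose; inconclusive = fit invalid, or curve flat with 30 to 70% inhibition; inactive = the rest.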 Some of the results follow. Entries with a potency or affinity are not part of this list.

Sequences of proteins named here, by UniProt entry; tags and fusion partners are left off. A change or cut given only in a name is not applied to a line headed by its entry.
UniProt O75164: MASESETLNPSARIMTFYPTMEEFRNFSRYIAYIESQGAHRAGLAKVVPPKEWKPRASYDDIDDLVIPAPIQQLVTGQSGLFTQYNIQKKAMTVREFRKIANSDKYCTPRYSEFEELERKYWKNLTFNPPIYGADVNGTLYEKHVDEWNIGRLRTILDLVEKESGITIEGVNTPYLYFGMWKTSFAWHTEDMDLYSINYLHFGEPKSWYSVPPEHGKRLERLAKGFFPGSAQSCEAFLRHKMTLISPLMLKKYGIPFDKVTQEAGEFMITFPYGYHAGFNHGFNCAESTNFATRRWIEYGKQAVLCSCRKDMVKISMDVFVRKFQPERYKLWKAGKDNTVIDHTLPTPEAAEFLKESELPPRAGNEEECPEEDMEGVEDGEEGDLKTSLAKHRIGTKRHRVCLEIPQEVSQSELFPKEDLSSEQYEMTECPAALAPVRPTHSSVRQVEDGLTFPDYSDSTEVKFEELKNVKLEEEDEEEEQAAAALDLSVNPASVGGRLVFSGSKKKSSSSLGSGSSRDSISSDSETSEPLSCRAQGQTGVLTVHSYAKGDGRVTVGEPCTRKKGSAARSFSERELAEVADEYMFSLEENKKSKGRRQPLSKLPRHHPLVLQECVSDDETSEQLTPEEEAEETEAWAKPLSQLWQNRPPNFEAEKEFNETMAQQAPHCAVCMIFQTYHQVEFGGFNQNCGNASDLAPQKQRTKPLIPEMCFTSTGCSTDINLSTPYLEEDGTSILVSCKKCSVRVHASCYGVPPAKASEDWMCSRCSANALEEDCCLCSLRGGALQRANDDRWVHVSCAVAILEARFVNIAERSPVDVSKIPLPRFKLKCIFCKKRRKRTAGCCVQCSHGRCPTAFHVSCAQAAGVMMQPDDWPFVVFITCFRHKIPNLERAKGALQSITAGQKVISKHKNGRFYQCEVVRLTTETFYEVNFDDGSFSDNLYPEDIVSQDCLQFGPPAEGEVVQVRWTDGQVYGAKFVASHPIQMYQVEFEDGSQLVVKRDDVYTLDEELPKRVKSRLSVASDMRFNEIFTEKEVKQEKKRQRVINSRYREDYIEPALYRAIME

Molecular target: Lysine-specific demethylase 4A (Homo sapiens) (UniProt O75164)
Assay: inhibition of JMJD2A H3K9me3 demethylation – biochemical, DELFIA europium, cherry-picked samples, selectivity assay for GASC-1 inhibitor project, dose response (AID 488840);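 also: europium signal reports the dimethyl H3K9 product detected by antibody so inhibitors lower it; 0% = median of neutral control wells and -100% = median of positive control wells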
Conditions: GST-JMJD2A(1-420) H3K9me3 demethylation; at 6 µM (top of the series) unless noted

Activity change, negative = inhibition, inactive:
CC(C)=CC(=O)O[C@@H]1Cc2c(ccc3ccc(=O)oc23)OC1(C)C -0.336%, O=C1CC2C(=O)NCCN2C(=NC(=O)c2ccccc2)N1 (configuration not stated) 7.77%, CSCCC(NS(=O)(=O)c1ccc(Cl)cc1)C(=O)O (configuration not stated) 3.06%, COc1ccc(OC)c(N(CC(=O)NCc2ccncc2)S(C)(=O)=O)c1 -0.807%, COc1ccc2sc(-c3ccc(S(C)(=O)=O)cc3)c(C#CCO)c2c1 -2.02%, O=C(Nc1ccccc1C(=O)N1CCOCC1)c1noc2c1CCCC2 8.98%, Cc1noc(C)c1S(=O)(=O)N(C)C[C@H]1Oc2c(cccc2N(C)C)C(=O)N([C@H](C)CO)C[C@@H]1C -2.38%, c1ccc2c(c1)ccc1nnc(-c3ccc4c(c3)OCO4)n12 3.37%, COc1ccc(C2CC(c3cccs3)=NN2S(=O)(=O)c2ccc(C)cc2)cc1 (configuration not stated) 7.91%, Cc1cccc(N2CCN(C(=O)c3ccc(CS(=O)(=O)c4ccccc4C)o3)CC2C)c1 (configuration not stated) 4.2%, Cc1cccc(OCCCn2c(=O)oc3ccc(C)cc32)c1 0.479%, CCCC(=O)Nc1ccc(Oc2ccc(NC(=O)CCC)cc2)cc1 0.263%, COc1ccc(/C=N/n2c(=O)[nH]c3c([nH]c4ccc(Br)cc43)c2=O)cc1CN1CCOCC1 2.87%, CCOc1ccc(N2CC(C(=O)Nc3nnc(Cc4ccc(OC)cc4)s3)CC2=O)cc1 (configuration not stated) -2.52%, CNC[C@@H]1Oc2c(NC(=O)Nc3ccccc3)cccc2C(=O)N([C@@H](C)CO)C[C@H]1C 0.201%, CCOC(=O)c1csc(N/N=C2\CCc3ccccc32)n1 -1.87%, OC1(c2cccc(F)c2)CCN(Cc2ccncc2)CC1 0.57%, CNC(=O)c1sccc1-n1cccc1 -1.48%, CC(=O)N1CCc2cc(S(=O)(=O)NC(CC(C)C)C(=O)Nc3cc(C(=O)O)ccc3C)ccc21 (configuration not stated) -4.87%, O=C1/C(=C/c2cccs2)COc2ccccc21 2.89%, NC(=O)NC(=O)CSc1nnc(-c2ccco2)n1Cc1ccccc1 -0.393%, O=C(Nc1ccc(Cl)c(C(F)(F)F)c1)NC1CC2CCCC(C1)N2Cc1ccccc1 (configuration not stated) -1.41%, COC(=O)[C@]1(C)N[C@H](CN(C)C(=O)Nc2ccccc2)[C@@H]2C(=O)N(Cc3ccccc3)C(=O)[C@@H]21 6.46%, COc1ccc(-n2cc(CNCCc3cscn3)c(-c3ccccc3Cl)n2)cc1 -8.2%, Cc1ccccc1NC(=S)c1nc2ccccc2[nH]1 -0.0357%, C[C@H](CO)N1C[C@H](C)[C@@H](CN(C)S(C)(=O)=O)Oc2ccc(N(C)C)cc2C1=O 2.91%, O=[N+]([O-])c1ccccc1NCc1ccc(Cl)cc1 -3.88%, O=C(NCCCNCCCNC(=O)c1ccc(/C=N/O)nc1)c1ccc(/C=N/O)nc1 14%, CCN(C[C@H]1N[C@@](CC)(C(=O)OC)[C@H]2C(=O)N(C)C(=O)[C@@H]12)S(=O)(=O)c1ccc(C(F)(F)F)cc1 12.9%, NCc1nc(-c2ccc(Cl)cc2)no1 -3.41%, O=C(CSc1nnc(CNC(=O)c2ccccc2F)o1)NCCc1ccccc1 3.34%, CCOC(=O)N1CCC2(CC1)C(C#N)=C(N)OC1=C2C(=O)CC(C)(C)C1 1.08%, CCOC(=O)c1cc2nc(Nc3ccc(OC)cc3)sc2s1 -5.27%, Cn1c(=O)c2[nH]c(N3CCN(c4cccc(O)c4)CC3)nc2n(C)c1=O 1.58%, Oc1cccc(/C=N/NC(=S)NCCN2CCOCC2)c1O -6.83%, C#CCOCCOCCOCCNc1nc(N2CCOCC2)nc(N2CCN(C(=O)[C@H](Cc3cc4ccccc4[nH]3)n3cc([C@@H](N)CC(C)C)nn3)CC2)n1 -4.26%, CCOc1cc(/C=C\c2[nH]c(=O)[nH]c(=O)c2[N+](=O)[O-])ccc1OC(C)CC (configuration not stated) 2.73%, Cc1cc(N/N=C/c2ccc(O)cc2O)nc(-n2nc(C)cc2C)n1 9.61%, Cc1ccc(S(=O)(=O)Nc2ccc3c(c2)C(=O)N([C@H](C)CO)C[C@@H](C)[C@@H](CN(C)C(=O)Nc2cccc4ccccc24)O3)cc1 8.37%, COc1cccc(Oc2nccc(N(C)C)c2C#N)c1 -1.23%, O=C(Cn1cnc2c(OCc3ccccc3)ncnc21)NCCCc1ccccc1 -1.3%, Cc1cccnc1Nc1nc(-c2ccc(O)cc2)cs1 4.45%, COc1cccc(C(C[N+](=O)[O-])c2c(C)[nH]n(-c3ccccc3)c2=O)c1 (configuration not stated) -1.17%, Cc1nn(Cc2ccc([N+](=O)[O-])cc2)c(=O)n1-c1cccc(Cl)c1 -1.66%, Cc1cc(C)nc(NCc2ccc(Cl)cc2)n1 -5.33%, Cc1ccccc1CNc1nnnn1C -0.727%, O=C(COc1c(CO)cc(Br)cc1CO)NC1CCCc2ccccc21 (configuration not stated) 4.58%, CC(C)(C)c1ccc(OCCC(=O)NC2=NCCS2)cc1 2.6%, N#Cc1ccc(OCC(=O)N2CCN(S(=O)(=O)c3cccs3)CC2)cc1 -1.96%, Cc1ccc(Nc2c(-c3ccccn3)nc3cc(C)ccn23)cc1 -3.14%, COc1ccc(NC(NC(=O)c2cccnc2)C(Cl)(Cl)Cl)cc1 (configuration not stated) -1.64%, Cc1cc(NC(=O)COc2ncnc3sc(C)c(C)c23)no1 -12%, COc1cc2c(cc1OC)C(=O)N1[C@H]3c4cc(C)ccc4OC[C@@H]3[C@H](c3ccccc3)[C@]1(C)C(=O)N2 7.19%, CCOC(=O)C1=C(C)N(C)C(C)=C(C(=O)OCC)C1c1cccnc1 13.7%, C=CCN(C(=O)Nc1ccccc1)C1CC(=O)N(c2ccc(OC)cc2)C1=O (configuration not stated) 3.88%, CCOc1ccc(N=Cc2c(O)n(-c3cccc(C)n3)c(=O)c3ccccc23)cc1 2.65%, Cc1ccc(N2NC3(CCN(C(N)=O)CC3)NC2=O)cc1 2.12%, COc1ccc(C(=O)OCC(=O)c2ccccc2)cc1S(=O)(=O)N1CCOCC1 -7.28%, CCN(C(=O)C(C)Sc1ccc(S(=O)(=O)N2CCOCC2)cn1)c1ccccc1 (configuration not stated) 2.79%, NC(=O)C1CCN(C(=O)c2ccc(Oc3cc(Cl)cc(Cl)c3)o2)CC1 7.13%, Cc1cccc(-n2cnc(C(=O)NNC(=S)Nc3ccccc3)c2)n1 10.8%, NC(=O)Cn1nc([N+](=O)[O-])nc1Oc1ccccc1F -0.225%, O=C(OCc1c(Cl)cccc1Cl)c1cnccn1 -3.04%, COc1cc(C(C(=O)NC2CCCCC2)N(Cc2cccs2)C(=O)Cc2c[nH]c3ccccc23)cc(OC)c1OC (configuration not stated) -1.46%, O=C(Cn1cnc2c(OCc3ccccc3)ncnc21)N1CCN(c2ccccn2)CC1 -3.78%, COc1ccc(CCNC(=O)N2c3ccccc3Sc3ccccc32)cc1 -4.46%, COc1ccc(S(=O)(=O)N(C)C[C@H]2Oc3ccc(NC(=O)Cn4cnnn4)cc3C(=O)N([C@H](C)CO)C[C@@H]2C)cc1 -2.83%, CCc1nnc(NC(=O)CCC(=O)N2CCN(Cc3ccc(Cl)cc3)CC2)s1 0.488%, COc1ccc(-c2cc(C(F)(F)F)n3nc(C(=O)NCCCN4CCOCC4)cc3n2)cc1 0.776%, Cc1ccc(NC(=O)CSc2nnc(-c3cccs3)n2Cc2ccco2)cc1 3.23%, CCOc1ccc(N2C(=O)CC(N(O)c3ccccc3)C2=O)cc1 (configuration not stated) -2.85%, CCOC(=O)Cc1ccc(NC(=O)c2ccc(C(C)(C)C)cc2)cc1 4.57%, COc1ccc(S(=O)(=O)C(C#N)c2nc3ccccc3nc2N2CCCCC2)cc1 (configuration not stated) 2.79%, CCn1c(CCn2ccnc2C)n[nH]c1=S 0.682%, CCOC(=O)N1CCC(N2CCN(c3cc(C)ccc3C)CC2)CC1 0.00581%, Oc1cc2ccccc2cc1-c1nnc2n1-c1ccccc1SC2 -5.93%, Cc1cc(=S)c2cccc(C)c2[nH]1 2.78%, N#CCCn1c(SCC(=O)N2CCN(S(=O)(=O)c3ccccc3)CC2)nc2ccccc21 -0.915%, O=C(O)Cn1cc(/C=C2/SC(=O)N(CC(=O)N3CCCCCC3)C2=O)c2ccccc21 5.21%, Cc1nnc(N(C)C(=O)c2ccccn2)s1 -2.88%, Cc1c(C(c2ccc([N+](=O)[O-])cc2)c2c(C)n(C)n(-c3ccccc3)c2=O)c(=O)n(-c2ccccc2)n1C -0.46%, CC(=O)Nc1ccc(CN2CCN(c3cccc(C(F)(F)F)c3)CC2)cc1 -9.19%, CCN(CC(=O)Nc1ccc2c(c1)OCCO2)C(=O)CC1CCCC1 6.07%, c1csc(Cn2nnnc2CN2CCN(c3nc4ccccc4s3)CC2)c1 -4.77%, O=C(NCC1CCCO1)C(c1ccc(F)cc1)N(CCCN1CCOCC1)C(=O)c1ccc(-c2ccccc2)[nH]1 (configuration not stated) 13.1%, COc1ccc(NC(=O)N(C)C[C@H]2Oc3ccc(NC(=O)CCC(F)(F)F)cc3C(=O)N([C@H](C)CO)C[C@@H]2C)cc1 -0.526%, CCc1ccc([C@@H]2CC=C(C(=O)O)[C@H](c3ccc(Br)cc3)N2S(=O)(=O)c2ccc(C)cc2)cc1 -3.98%
